How the values were obtained:
[1] = Black dot generation evaluation of monolayer type photoconductor mounted on a printer; conditions: electron transfer agent (13-4), binding resin (PC-Z); for Black dots (number): after 5,000 sheets at 40° C., 90 Rf and leaving 6 hours, per blank A4 paper
[2] = Evaluation of the photoconductor external appearance (crystallization on the photoconductor layer surface); parameters: key to appearance (photoconductor external appearance): ◯ (good): Crystallization was not observed.; Δ (fair): Crystallization was slightly observed.; X (bad): Crystallization was observed; conditions: for appearance (photoconductor external appearance): hole transfer agent in monolayer photoconductor
[3] = X type non metal phthalocyanine
[4] = X type non metal phthalocyanine, electron transfer agent (13-1)
[5] = X type non metal phthalocyanine, electron transfer agent (13-3)
[6] = Y type titanyl phthalocyanine, electron transfer agent (13-3)

| Compound | Black dots (number) [1, 3] [number] | Black dots (number) ([1]; Y type titanyl phthalocyanine) | appearance (photoconductor external appearance) [2, 4] | appearance (photoconductor external appearance) [2, 5] | appearance (photoconductor external appearance) [2, 6] | Evaluation (black dot generation) [1, 3] | Evaluation (black dot generation) ([1]; Y type titanyl phthalocyanine) | Crystallization after applying the application liquid onto the conductive base member and drying ([2]; photoconductors made as in Examples 1 to 3 (Comparative Examples 4 to 6)) |
| --- | --- | --- | --- | --- | --- | --- | --- | --- |
| C(=Cc1cccc(N(c2ccc(/C=C/C=C/c3ccccc3)cc2)c2cccc3c2CCCC3)c1)/C=C/c1ccccc1 [compound (1-4)] | 44 | 46 | ◯(good) | ◯(good) | ◯(good) | – | – | – |
| Cc1cccc(N(c2ccc(/C=C/C=C/c3ccccc3)cc2)c2ccc(/C=C/C=C/c3ccccc3)cc2)c1C [compound (6-2), reference compound] | – | – | – | – | – | X(bad) (X (bad): Above 60 black dots generated per A4 paper sheet.) | X(bad) (X (bad): Above 60 black dots generated per A4 paper sheet.) | crystallized |
| Cc1ccc(/C=C/c2ccc(N(c3ccc(/C=C/C=C/c4ccccc4)cc3)c3cccc4c3CCCC4)cc2)cc1 [compound (1-8)] | 43 | 45 | ◯(good) | ◯(good) | ◯(good) | – | – | – |
| Cc1ccc(/C=C/c2ccc(N(c3ccc(/C=C/c4ccc(C)cc4)cc3)c3cccc4c3CCCC4)cc2)cc1 [compound (1-2)] | 43 | 44 | ◯(good) | ◯(good) | ◯(good) | – | – | – |
| C(/C=C/c1ccc(N(c2ccc(/C=C/C=C/c3ccccc3)cc2)c2ccc3c(c2)CCCC3)cc1)=C\c1ccccc1 [compound (1-5)] | 40 | 42 | ◯(good) | ◯(good) | ◯(good) | – | – | – |
| C(/C=C/c1ccc(N(c2ccc(/C=C/C=C/c3ccccc3)cc2)c2ccc3c(c2)CCC3)cc1)=C\c1ccccc1 [compound (1-11)] | – | – | ◯(good) | ◯(good) | – | – | – | – |
| C(/C=C/c1ccc(N(c2ccc(/C=C/C=C/c3ccccc3)cc2)c2cccc3c2CCC3)cc1)=C\c1ccccc1 [compound (1-9)] | 40 | 40 | ◯(good) | ◯(good) | ◯(good) | – | – | – |
| Cc1ccc(N(c2ccc(/C=C/C=C/c3ccccc3)cc2)c2ccc(/C=C/C=C/c3ccccc3)cc2)c(C)c1 [compound (6-1), reference compound] | 72 | 75 | – | – | – | X(bad) (X (bad): Above 60 black dots generated per A4 paper sheet.) | X(bad) (X (bad): Above 60 black dots generated per A4 paper sheet.) | – |
| C(=C\c1ccc(N(c2ccc(/C=C/c3ccccc3)cc2)c2cccc3c2CCCC3)cc1)/c1ccccc1 [compound (1-1)] | 38 | 42 | ◯(good) | ◯(good) | ◯(good) | – | – | – |
| Cc1ccc(/C=C/c2ccc(N(c3ccc(/C=C/C=C/c4ccccc4)cc3)c3cccc4c3CCC4)cc2)cc1 [compound (1-10)] | – | – | ◯(good) | ◯(good) | ◯(good) | – | – | – |
| C(/C=C/c1ccc(N(c2ccc(/C=C/c3ccccc3)cc2)c2cccc3c2CCCC3)cc1)=C\c1ccccc1 [compound (1-6)] | 42 | 42 | ◯(good) | ◯(good) | ◯(good) | – | – | – |
| C(/C=C/c1ccc(N(c2ccc(/C=C/C=C/c3ccccc3)cc2)c2cccc3c2CCCC3)cc1)=C\c1ccccc1 [compound (1-3)] | – | – | ◯(good) | ◯(good) | ◯(good) | – | – | – |
| C(/C=C/c1ccc(N(c2ccc(/C=C/c3ccccc3)cc2)c2ccc3c(c2)CCCC3)cc1)=C\c1ccccc1 [compound (1-7)] | 43 | 45 | ◯(good) | ◯(good) | ◯(good) | – | – | – |
| Cc1ccc(/C=C/c2ccc(N(c3ccc(/C=C/C=C/c4ccccc4)cc3)c3ccc4c(c3)CCC4)cc2)cc1 [compound (1-12)] | 43 | 45 | – | – | – | ◯(good) | ◯(good) | – |

— patent publication US20070275314A1, “Diphenyl amine derivative, production method therefor and electrophotographic photoconductor” (priority 2006, published 2007)
